From ChEMBL document CHEMBL3988442, “University of Dundee, Small-Polar-MMV Screening Library” (2021).

Protein sequences, listed by entry. Tags and fused reporters are not part of them.
UniProt E9BF75, entry or part of it: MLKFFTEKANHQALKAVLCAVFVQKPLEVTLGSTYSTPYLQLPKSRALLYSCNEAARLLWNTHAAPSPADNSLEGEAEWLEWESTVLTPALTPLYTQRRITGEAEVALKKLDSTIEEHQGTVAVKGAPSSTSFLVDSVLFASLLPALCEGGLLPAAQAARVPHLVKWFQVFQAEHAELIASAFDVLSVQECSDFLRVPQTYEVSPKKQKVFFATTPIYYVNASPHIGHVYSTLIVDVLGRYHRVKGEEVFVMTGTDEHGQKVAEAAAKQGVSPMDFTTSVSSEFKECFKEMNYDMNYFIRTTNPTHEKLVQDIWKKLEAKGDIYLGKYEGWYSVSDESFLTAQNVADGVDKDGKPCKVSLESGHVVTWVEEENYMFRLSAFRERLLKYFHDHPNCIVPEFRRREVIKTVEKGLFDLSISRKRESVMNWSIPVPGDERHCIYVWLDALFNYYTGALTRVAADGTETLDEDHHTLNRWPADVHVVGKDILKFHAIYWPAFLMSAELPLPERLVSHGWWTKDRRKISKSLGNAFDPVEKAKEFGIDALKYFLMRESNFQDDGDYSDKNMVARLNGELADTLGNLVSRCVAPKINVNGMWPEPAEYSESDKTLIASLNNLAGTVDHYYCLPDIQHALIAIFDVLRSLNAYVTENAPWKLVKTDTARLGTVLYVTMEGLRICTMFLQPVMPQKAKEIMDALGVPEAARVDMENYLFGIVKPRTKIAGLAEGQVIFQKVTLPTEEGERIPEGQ

A: 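Methionyl-tRNA synthetase (putative), Leishmania donovani (UniProt E9BF75). Primary screen of methionyl-tRNA synthetase; the read-out is not stated. The test concentration is not given. The values are filed as inhibition. About 68,000 compounds were tested under these conditions; 0.035% (about 24) showed 50% or more at least once.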
B: 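Assay on Mycobacterium tuberculosis, filed only as a heat shock assay from Cornell; the read-out is not stated. The concentration is filed as 10 mM, unlikely as a test dose, so the dose is not known. Higher reads as stronger inhibition (inferred: compounds with an IC50 in retests scored well above the rest). Of about 69,000 compounds tested this way, about 930 (1.4%) reached 50% or more in at least one test.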

All values are in %. How 0% and 100% were set is not recorded. Most values in the screen are low, and negative values occur. Compounds were drawn at random from those tested, without regard to their results.

- Cn1ccnc1CC1CCCN(Cc2noc(C3CC3)n2)C1 (configuration not stated) : A: 13.8%; B: -8.161%
- COCC(=O)NCc1cc(=O)n2c(n1)CN(Cc1ccccc1)CCC2.O=C(O)C(F)(F)F : B: 19.44%
- COc1ccc(C(=O)N2CCN3C(=O)CNC(=O)[C@@H]3C2)cc1 : A: 7.143%
- Cc1ccc(NC(=O)N2CCCC2)c(OCC2CCCO2)c1 (configuration not stated) : A: 12.5%; B: 0.1061%
- CCc1noc(CN2CCN(c3nccs3)CC2)n1 : A: 3.409%; B: -9.445%
- CCn1c(N)nc2cc(C(=O)NCc3cccc(C)c3C)cnc21 : A: 0.2959%; B: -0.9635%
- Cc1cnc2n(c1=O)CC(C(=O)Nc1cccc3cccnc13)CS2 (configuration not stated) : A: 5.419%; B: 20.4%
- O=C(c1ccco1)N1CCc2c(nc(-c3ccncc3)[nH]c2=O)C1 : A: -5.914%; B: -17.62%
- CC1c2ncc(Cn3cccn3)n2CCN1Cc1ccc(F)cc1.O=C(O)C(F)(F)F (configuration not stated) : B: 23.32%
- Cc1nc(C)c(C(=O)N2CCCC2c2nnc3n2CCCCC3)s1 (configuration not stated) : A: 14.29%; B: -4.569%
- COCCN1CCO[C@H]2CN(C(=O)c3cccs3)C[C@H]21 : A: 13.04%
- O=C1NCC2(CCCN(C(=O)c3ccc4c(c3)CCO4)C2)O1 (configuration not stated) : A: -0.2564%; B: -4.892%
- O=C(O)C(F)(F)F.O=C1CCCN1Cc1nnc2n1CCCN(Cc1ccco1)C2 : B: 11.28%
- CC(c1cccc(-c2ncccc2F)c1)N(C)C (configuration not stated) : A: 13.44%; B: 76.79%
- COc1ccc(CN2CCCn3cnc(COC(C)C)c3C2)cc1.O=C(O)C(F)(F)F : B: -27.78%
- O=C1Nc2ccccc2/C1=C1\CCCCCN1 : A: 6.452%; B: -15.34%
- Fc1ccc(C2CCCCN2Cc2cc(-c3ccccn3)no2)cc1 (configuration not stated) : A: 11.48%; B: -1.019%
- COCCN1CCN(Cc2c(C)noc2C)Cc2cccnc21.O=C(O)C(F)(F)F.O=C(O)C(F)(F)F : B: 6.446%
- Cc1ccc(N2CCCC(NCC(=O)NC3CCOCC3)C2)nn1 (configuration not stated) : A: 14.58%; B: 14.86%
- CC(C)n1c(C(=O)N2CCCC2)nc2c1CCN(C)C2 : A: -25%
- [H][C@]12CC[C@@]3(N=C(C)N(CCOC)C3=O)[C@@]1([H])CN(C(=O)NC1CCCC1)C2 : B: 32.06%
- Cn1nnc(C2(NC(=O)c3ccccc3)CCCC2)n1 : A: 15.25%; B: -7.811%
- CCCc1ncc(C(=O)N2CCOc3ncccc32)s1 : A: -0.361%; B: -19.11%
- Cc1ccc2[nH]nc(C(=O)NCC3CCN(Cc4c[nH]cn4)C3)c2c1 (configuration not stated) : A: 20.29%; B: -16.43%
- O=C(NCc1cccs1)C1CNCC12CCOCC2.O=C(O)C(F)(F)F (configuration not stated) : B: -26.24%
- CCc1ccc(CNC(=O)NC2CCCc3c2cnn3CCO)s1 (configuration not stated) : A: 8.488%; B: -7.377%
- COc1ccc(S(=O)(=O)N2CCOC(Cn3ccnc3)C2)cc1 (configuration not stated) : A: 12.38%
- Cc1noc(C2(NC(=O)c3cccnc3O)CCCCC2)n1 : A: 14.91%; B: 5.288%
- Cc1ccc(CNCc2nnc3n2CC(C(F)(F)F)CC3)o1 (configuration not stated) : A: 10.63%; B: -8.702%
- CNC(=O)NC(=O)CCN1CCCC1c1nc(C2CCCCC2)co1 (configuration not stated) : A: 13.7%; B: 2.409%
- Cc1ccc(CN2Cc3nccn3CC(Cn3cncn3)C2)s1 (configuration not stated) : A: 23.31%
- Cc1cc(C)nc(N2CCCC2c2cccnc2)n1 (configuration not stated) : A: 13.77%; B: -1.672%
- c1ccc(CN2CCc3c(COCC4CC4)cncc3C2)nc1 : A: 9.295%
- Cc1c(Cn2c(=O)cnc3ccccc32)cnn1C : A: 10.7%; B: -7.968%
- O=C(O)C(F)(F)F.[H][C@@]12C[C@H](c3nc(C)no3)CN(Cc3ccc4c(c3)OCO4)[C@]1([H])CCO2 : B: 0.6078%
- Cc1cccc(CO[C@H]2CO[C@@]3(CCN(S(=O)(=O)N(C)C)C3)C2)n1 : A: 7.769%; B: -25.98%
- NC[C@H]1CC[C@H](C(NC(=O)c2ccccc2)c2ccccn2)CC1 (some centres not stated) : A: 14.34%; B: 15.73%
- CCOC[C@@]12CCC[C@@H]1CN(C(=O)COc1ccccc1OC)C2 : A: 7.235%
- Cc1ccc([C@H]2CN(C(=O)CC3CCC3)C[C@@H]2N)o1 : A: 17.69%; B: 15.07%
- Cc1ccc(-c2nc(CN3CCC(C(=O)N(C)C)CC3)cs2)o1 : A: 11.81%; B: 9.547%
- O=C1[C@H]2CC[C@H](CN(Cc3nnc(C4CC4)o3)C2)N1Cc1cscn1 : A: 8.411%
- Cn1ccnc1CN1CCCN(C(=O)c2ccc3ccccc3c2)CC1 : A: 12.01%; B: -11.69%
- Cc1noc(C)c1CN1CCCC2(C1)CN(c1nccs1)CCO2.O=C(O)C(F)(F)F (configuration not stated) : B: -15.03%
- Cc1nc(-c2ccsc2)ccc1C(=O)N1CCn2c(C)nnc2C1 : A: 2.486%; B: -19.51%
- CCS(=O)(=O)N(C)C1CCN(C(=O)c2cccc(Cl)c2)CC1 : A: 15.24%; B: 1.606%
- CS(=O)(=O)CCn1ccc(NC(=O)Cc2ccccc2F)n1 : A: -4.805%; B: 0.6129%
- COCCCNC(=O)CN(C)C(=O)CN(C)c1ccc(C#N)cn1 : A: 14.37%; B: 1.374%

For reference, 6 entries once more:

Cc1ccc([C@H]2CN(C(=O)CC3CCC3)C[C@@H]2N)o1 gave A: 17.69%; B: 15.07%.
CCc1noc(CN2CCN(c3nccs3)CC2)n1 gave A: 3.409%; B: -9.445%.
O=C(O)C(F)(F)F.[H][C@@]12C[C@H](c3nc(C)no3)CN(Cc3ccc4c(c3)OCO4)[C@]1([H])CCO2 gave B: 0.6078%.
O=C1[C@H]2CC[C@H](CN(Cc3nnc(C4CC4)o3)C2)N1Cc1cscn1 gave A: 8.411%.
Cc1nc(C)c(C(=O)N2CCCC2c2nnc3n2CCCCC3)s1 (configuration not stated) gave A: 14.29%; B: -4.569%.
Cc1cnc2n(c1=O)CC(C(=O)Nc1cccc3cccnc13)CS2 (configuration not stated) gave A: 5.419%; B: 20.4%.